Two molecules from patent publication US7038020 can be followed below.

The target in the test is Partial D variant DVI (human). Kind of test: haemagglutination, DVI+ rbc.

Results are given in words; binding and its absence hold for the method and conditions named. Binding calls can cover weak binding; strength is not graded here.

B1: Fab clone LD1/2-6-3 (Fab, V domains shown)
VH: QVKLLESGGGVVQPGGSLRVACVASGFTFRNFGMHWVRQAPGKGLEWVAFIWFDASNKGYGDSVKGRFTVSRDNSKNTLYLQMNGLRAEDTAVYYCAREKAVRGISRYNYYMDVWGKGTTVTVSS
VL: VMTQSPSSLSASVGDRVTITCRASQSIIRYLNWYQHKPGKAPKLLIHTASSLQSGVPSRFSGSVSGTDFTLTISSLQPEDFATYYCQQSYTTPYTFGQGTKLQIK
As for B1, the binding result is “binds”.

B2: Fab clone LD1/2-6-33 (Fab, V domains shown)
VH: QVKLLESGGGVVQPGGSLRVACVASGFTFRNFGMHWVRQAPGKGLEWVAFIWFDASNKGYGDSVKGRFTVSRDNSKNTLYLQMNGLRAEDTAVYYCAREKAVRGISRYNYYMDVWGKGTTVTVSS
VL: VMTQSPSFLSASVGDRVTITCRASQSIIRYLNWYQHKPGKAPKLLIHAASSLQSGVPSRFSGSVSGTDFTLTISSLQPEDFATYYCQQSYTTPYTFGQGTKLQIK
With B2, the binding result is on record as “binds”.
